Measured values taken from PubChem BioAssay AID504834 (National Center for Advancing Translational Sciences (NCATS), 2011).
The campaign covered roughly 320,000 compounds. About 22,000 (6.9%) were called active. The shares of active, inactive and inconclusive entries below differ from those in the screen. Calls come from the whole dose curve; as a rule, active = well fitted inhibition curve with a large enough effect; inconclusive = small, poorly fitted or top-dose-only effect, or another doubt; inactive = no such curve, though single readings can be large or run the other way. Where the call is inconclusive, the potency comes from a doubtful curve fit.
Potency is the fitted concentration of half-maximal effect.

Experiment: Primary qHTS for delayed death inhibitors of the malarial parasite plastid, 96 hour incubation
Conditions: P. falciparum luciferase reporter growth; series mostly up to 28.7 µM
How it was run: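 Luminescence readout: decreased luciferase signal marks inhibited growth of reporter-expressing P. falciparum in infected red cells (2% hematocrit, 0.05% parasitemia final), exposed to compound two generations (96 h, 37 C, 5% CO2).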
With `CCOc1ccc(C(=O)Nc2ccc(S(=O)(=O)Nc3cc(C)on3)cc2)cc1` the Potency was active: 2.94 µM. In the case of `CN(C)C(=O)c1ccccc1NC(=O)Cc1cccc2ccccc12`, the Potency was “inactive”. For `CN(Cc1cccc(F)c1)C(=O)c1cccc(S(=O)(=O)N2CCN(Cc3ccccc3)CC2)c1`, the Potency was “inactive”. In the case of `CCOC(=O)N/N=C/c1c(F)cccc1F`, the Potency was “inactive”. For `O=C1CC(c2ccc3c(c2)OCO3)CN1` (centres undefined), the Potency was inconclusive: 0.117 µM [inhibitor, full curve]. In the case of `Cc1ccc(S(=O)(=O)CCC(=O)Nc2cccc(Cl)c2)cc1`, the Potency was “inactive”. In the case of `O=C(OCCNc1ccc(C(F)(F)F)cc1[N+](=O)[O-])c1cc2ccccc2oc1=O`, the Potency was “inactive”. In the case of `O=C(NCC(c1ccco1)N1CCCCC1)C(c1ccccc1)c1ccccc1` (centres undefined), the Potency was “inactive”. With `CN1CCCCc2c1[nH]c1ccccc1c2=O` the Potency was inconclusive: 14.7 µM [inhibitor, single point]. With `O=C(CN1CCN(S(=O)(=O)c2ccccc2F)CC1)Nc1ccnn1C1CCCC1` the Potency was inconclusive: 18.5 µM [inhibitor, single point]. With `Cc1cc(NC(=O)CN2CCc3ccccc3C2)nc2c1c(=O)oc1ccccc12` the Potency was inconclusive: 18.5 µM [inhibitor, single point]. With `CCCC1(c2ccccc2)NC(=O)NC1=O` (centres undefined) the Potency was “inactive”. With `CCc1c(O)cc2n(c1=O)-c1ccc(Cl)cc1C2(C)C` the Potency was “inactive”. In the case of `Cc1nc(-c2ccccc2)nc(-c2ccccc2)n1`, the Potency was “inactive”. With `CC(C#N)(NC(=O)CN1CCN(S(=O)(=O)c2ccccc2Cl)CC1)C1CC1` (centres undefined) the Potency was inconclusive: 5.86 µM [inhibitor, single point]. For `CC12CCC(C(=O)NCCN3CCCCC3)(CC1=O)C2(C)C` (centres undefined), the Potency was inconclusive: 13.1 µM [inhibitor, single point]. In the case of `O=C(NC1=C(NC2CCS(=O)(=O)C2)C(=O)c2ccccc2C1=O)c1ccccc1` (centres undefined), the Potency was inconclusive: 1.47 µM [inhibitor, full curve, poor fit]. In the case of `COC(=O)[C@@]1(Cc2ccccc2)[C@H]2c3cc(C(=O)N4CCCC4)n(CCSCCO)c3C[C@H]2CN1C(=O)c1ccccc1`, the Potency was active: 2.33 µM. For `Cc1ccc(C(=O)NC(=S)/C=C2\N(C)c3ccccc3C2(C)C)cc1`, the Potency was inconclusive: 18.5 µM [inhibitor, single point]. In the case of `COc1ccc(S(=O)(=O)Nc2cc(C(=O)NCCC(C)C)ccc2N2CCOCC2)cc1`, the Potency was inconclusive: 2.33 µM [inhibitor, partial curve]. With `CCC(C)C(=O)N[C@@H](c1ccccc1)[C@@H](O)C(=O)O[C@H]1C[C@@]2(O)[C@@H](OC(=O)c3ccccc3)C3[C@](C)(C(=O)[C@H](OC(C)=O)C(=C1C)C2(C)C)[C@@H](O)C[C@H]1OC[C@@]31OC(C)=O` (some centres undefined) the Potency was active: 0.233 µM. In the case of `COc1ccccc1NC(=O)/C(C#N)=C/c1cc([N+](=O)[O-])ccc1N1CCCC1`, the Potency was inconclusive: 18.5 µM [inhibitor, single point]. With `O=C(/C=C/c1ccc(Cl)cc1)NC(=S)Nc1ccc(CN2CCOCC2)cc1` the Potency was inconclusive: 13.1 µM [inhibitor, single point]. In the case of `O=c1cc(-c2cc3ccccc3o2)c2cc(O)ccc2o1`, the Potency was inconclusive: 11.7 µM [inhibitor, single point]. For `COc1cc(CNC(C)C23CC4CC(CC(C4)C2)C3)ccc1OCC(=O)NC(C)(C)C` (centres undefined), the Potency was “inactive”. In the case of `CCC(=O)N1CCc2cc(S(=O)(=O)NCCC(=O)N3CC=C(c4ccccc4)CC3)ccc21`, the Potency was inconclusive: 4.15 µM [inhibitor, single point]. With `Cc1cccc(Nc2ncnc3onc(-c4cccc(Cl)c4)c23)c1C` the Potency was active: 9.28 µM. In the case of `Cc1nn(C)c(C)c1S(=O)(=O)N(CC(=O)NCCCOC(C)C)c1ccc(C(C)C)cc1`, the Potency was inconclusive: 18.5 µM [inhibitor, single point]. In the case of `CC(=O)c1c(N2CCCC2)[nH]c(-c2ccccc2)nc1=S`, the Potency was inconclusive: 8.28 µM [inhibitor, partial curve, poor fit]. With `CC(C(=O)NCCc1ccc(F)cc1)N1CCN(Cc2ccccc2)CC1` (centres undefined) the Potency was active: 5.22 µM. For `O=C(CCc1nc2ccccc2c(=O)[nH]1)Nc1ccccc1N1CCCC1`, the Potency was “inactive”. For `O=C(Nc1cc(N2CCOCC2)ncn1)NC1(C(F)(F)F)Oc2ccccc2O1`, the Potency was “inactive”. In the case of `O=C(NNC1CC(c2ccccc2)=NN1C(=O)c1ccccc1)c1ccccc1` (centres undefined), the Potency was inconclusive: 9.28 µM [inhibitor, single point]. For `C/C(=C\c1csc(C)n1)[C@@H]1C[C@@H]2O[C@]2(C)CCC[C@H](C)[C@H](O)[C@@H](C)C(=O)C(C)(C)[C@@H](O)CC(=O)O1`, the Potency was inconclusive: 0.0013 µM [inhibitor]. For `C[C@@H]1CCC[C@H](C)N1`, the Potency was “inactive”. In the case of `CCC(Sc1nccn1C)C(=O)Nc1cccc2ccccc12` (centres undefined), the Potency was inconclusive: 0.117 µM [inhibitor, partial curve, poor fit]. For `CCN1C(=O)C(CC(=O)Nc2ccccc2Cl)N(NC(=O)c2cccc(F)c2)C1=S` (centres undefined), the Potency was inconclusive: 18.5 µM [inhibitor, single point]. With `Cc1cccc(-c2nc(CC(=O)Nc3cccc(S(=O)(=O)NC4=NCCC4)c3)cs2)c1` the Potency was inconclusive: 18.5 µM [inhibitor, single point]. With `CC(=O)[C@@]1(O)C(C)CC2C3C=C(C)C4=Cc5c(cnn5-c5ccccc5)C[C@]4(C)C3C(O)C[C@@]21C` (some centres undefined) the Potency was active: 10.4 µM. With `Cc1ccc(Nc2nc(N3CCOCC3)nc(N3CCOCC3)n2)cc1C` the Potency was inconclusive: 4.65 µM [inhibitor, partial curve]. For `CC(NC(=O)COC(=O)c1ccc(N(C)C)cc1)c1ccccc1` (centres undefined), the Potency was “inactive”. With `CCN(CC)C(=O)Cn1cc(SCC(=O)NC2CCCC2)c2ccccc21` the Potency was inconclusive: 4.65 µM [inhibitor, partial curve, poor fit]. With `Cc1[nH]c2ccc(C(=O)OC(C)C(=O)NC3CCCCC3C)cc2c1C` (centres undefined) the Potency was inconclusive: 18.5 µM [inhibitor, single point]. For `CCn1cc(C(=O)Nn2cnnc2)c(=O)c2ccc(C)nc21`, the Potency was inconclusive: 11.7 µM [inhibitor, single point].
